Experimental data: PubChem BioAssay AID652272 (Drosophila RNAi Screening Center, 2013)
In all, the deposit lists about 21,000 reagents; below is a random part of those that have a named target and a result. In the full data, 503 (2.4%) are marked active. 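Raw plate light values, not normalised; calls rest on replicate z-scores that were not deposited; hits include reporter decreases as well as increases.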 The numbers tell different reagents against one gene apart. A plus sign joins genes that one reagent is predicted to hit. Not stated in the record: the amount of reagent, the time to read-out.

Aim: 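Genome-wide knock-down search for components of Hedgehog signalling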 (primary screen)
Cells: Drosophila clone 8 (Cl8) cells
Knock-down reagent: long dsRNA against Drosophila genes
Read-out: 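Firefly light from a Hedgehog-responsive ptc promoter reporter and Renilla reference light, both read on a plate reader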
Reading the numbers: firefly Hh reporter signal: higher = more ptc reporter light; Renilla reference signal: higher = more Renilla control light
Active means: 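Hit when the z-score averaged over two replicates is under -2 or over +3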
Calls: active = hit: reporter lowered or raised; inactive = not a hit

Gene,reagent no.,"firefly Hh reporter signal, replicate 1","firefly Hh reporter signal, replicate 2","firefly Hh reporter signal, replicate 3","Renilla reference signal, replicate 1","Renilla reference signal, replicate 2",outcome
gek (genghis khan),1,1.26e5,45776,,4485,1668,inactive
cactin,1,49008,1.27e5,,1415,6029,inactive
CG42496 + Ppcdc,1,5.95e5,74423,1.13e5,4658,1261,inactive
dpr5 (defective proboscis extension response 5),1,74346,1.35e5,,2581,2880,inactive
CG34269,1,1.01e5,1.80e5,,3136,7293,inactive
Neu2 (Neuroectoderm-expressed 2),1,1.18e5,1.22e5,,4429,3659,inactive
CG15554,1,1.20e5,1.33e5,,4544,3912,inactive
Lrt (Leucine-rich tendon-specific protein),1,1.53e5,93865,,5030,5552,inactive
nw (narrow),1,92994,78721,,1987,5569,inactive
nw (narrow),2,96582,76794,,4297,3281,inactive
nw (narrow),3,66199,40650,,1640,3489,inactive
CG34281,1,78567,78217,,3056,1027,inactive
Best2 (Bestrophin 2),1,49644,59408,,3523,4508,inactive
CG4000,1,7.94e5,5.22e5,1.65e5,45453,3121,inactive
CG3999,1,62672,1.07e5,,1557,2513,inactive
siz (schizo),1,91219,1.17e5,,2917,3090,inactive
siz (schizo),2,1.18e5,1.52e5,,3812,4496,inactive
siz (schizo),3,71467,94825,,2480,3216,inactive
CG16711,1,37549,55100,52449,5547,3387,inactive
CG12825,1,1.43e5,71251,,3956,5926,inactive
ball (ballchen),1,56300,78021,,2195,2266,inactive
Dys (Dystrophin),1,49303,2.58e5,,10233,5600,inactive
Dys (Dystrophin),2,56336,2.26e5,,12067,5468,inactive
Dys (Dystrophin),3,7.04e5,1.32e5,,39685,2855,inactive
Dys (Dystrophin),4,5.08e5,77980,,30291,2028,inactive
Dys (Dystrophin),5,5.79e5,88197,,35138,2314,inactive
Dys (Dystrophin),6,5.24e5,85616,,29945,2058,inactive
Dys (Dystrophin),7,5.11e5,72738,,29463,2354,inactive
firl (firelighter),1,1.07e5,41724,,2681,4621,inactive
dbo (diablo),1,1.04e5,,,2816,2773,inactive
CG31229,1,88624,56379,,3092,11668,inactive
Polr1B (RNA polymerase I subunit B),1,61428,43469,,3362,2733,inactive
caly (calypso),1,1.06e5,89483,,5056,4184,inactive
GluProRS (Glutamyl-prolyl-tRNA synthetase),1,99008,80473,,4002,3109,inactive

Continued, starting with the last 9 of the part before.
Gene,reagent no.,"firefly Hh reporter signal, replicate 1","firefly Hh reporter signal, replicate 2","firefly Hh reporter signal, replicate 3","Renilla reference signal, replicate 1","Renilla reference signal, replicate 2",outcome
Dys (Dystrophin),5,5.79e5,88197,,35138,2314,inactive
Dys (Dystrophin),6,5.24e5,85616,,29945,2058,inactive
Dys (Dystrophin),7,5.11e5,72738,,29463,2354,inactive
firl (firelighter),1,1.07e5,41724,,2681,4621,inactive
dbo (diablo),1,1.04e5,,,2816,2773,inactive
CG31229,1,88624,56379,,3092,11668,inactive
Polr1B (RNA polymerase I subunit B),1,61428,43469,,3362,2733,inactive
caly (calypso),1,1.06e5,89483,,5056,4184,inactive
GluProRS (Glutamyl-prolyl-tRNA synthetase),1,99008,80473,,4002,3109,inactive
CG13243,1,92560,53492,,2147,3995,inactive
NPF (neuropeptide F),1,76668,77907,,2756,2434,inactive
ana (anachronism),1,1.57e5,84930,,5377,2673,inactive
CG13177,1,1.04e5,59837,,3339,6930,active
fliI (flightless I),1,5.14e5,95522,,3424,3424,inactive
CG1288,1,67837,90597,,2738,2528,inactive
CG33483,1,5.58e5,2.06e5,,26368,5019,inactive
His-Psi:CR31616 + His-Psi:CR31615,1,23779,37609,,882,2761,active
bru1 (bruno 1),1,3.68e5,1.20e5,,16364,4749,inactive
bru1 (bruno 1),2,4.38e5,89241,,20323,3922,inactive
bru1 (bruno 1),3,5.22e5,2.54e5,,25559,10080,inactive
bru1 (bruno 1),4,5.73e5,2.47e5,,27913,9741,inactive
bru1 (bruno 1),5,65469,43734,,3079,1778,inactive
vir (virilizer),1,68571,53504,,1473,4837,inactive
eIF2D (eukaryotic translation initiation factor 2D),1,56185,2.67e5,,14264,6628,inactive
vret (vreteno),1,1.14e5,95893,,4886,4358,inactive
CG12123,1,1.05e5,82309,,2547,1906,inactive
COX6AL2 (Cytochrome c oxidase subunit 6A-like 2),1,81170,1.30e5,,2628,3603,inactive
CG13196,1,89325,50754,,1835,3282,inactive
arg (arginase),1,1.86e5,1.16e5,,3621,4182,inactive
Mtp (Microsomal triacylglycerol transfer protein),1,64727,51632,,2857,2179,inactive
Yeti,1,6.14e5,1.83e5,,22219,1754,active
IFT43 (Intraflagellar transport 43),1,60172,54537,,2762,2202,inactive
TfAP-2 (Transcription factor AP-2),1,88054,1.18e5,,2944,3064,inactive
Cyt-c1L (Cytochrome c1-like),1,1.36e5,1.35e5,,2749,3211,inactive
RhoBTB (Rho-related BTB domain containing),1,73484,56656,,2771,2320,inactive
Mdh1 (Malate dehydrogenase 1),1,1.89e5,77957,,5111,7293,inactive
RanBPM (Ran-binding protein M),1,46196,42774,,2626,1867,inactive
PNUTS (Phosphatase 1 nuclear targeting subunit),1,70701,49841,,6034,4096,active
CG18748,1,51129,1.22e5,,1920,3525,inactive
BomT3 (Bomanin Tailed 3),1,50581,2.22e5,,11043,4768,inactive
BomT3 (Bomanin Tailed 3),2,4.88e5,1.77e5,,28032,12887,inactive
CG42726 + CG42727,1,56854,1.03e5,,2464,3897,inactive
CG15873,1,72353,78282,,1296,6859,inactive
mtDNA-helicase (mitochondrial DNA helicase),1,66967,43850,,1936,4074,inactive
TwdlC (TweedleC),1,84672,86123,,3162,2509,inactive
Orc2 (Origin recognition complex subunit 2),1,1.09e5,89394,,4228,3776,inactive
CG4998,1,1.04e5,,,3349,2742,inactive
CG11342,1,45829,49607,,4438,3126,inactive
